Holding throughout (type): cell-based
One experiment relates to HB-214. As to the kind of experiment: 60-agent chemical screen, cell viability (Cell-Titer Glo), HB-214.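 Further: viability read as luminescence once Cell-Titer Glo 2.0 reagent was added to drug-treated cells in 384-well plates.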 Particulars: Homo sapiens; 60-agent screen, 72 hours; a value of 10,000 indicates that the drug did not inhibit viability; read-out: absolute IC50, HB-214.
The subject of another experiment is HepG2. As to the kind of experiment: 60-agent chemical screen, cell viability (Cell-Titer Glo), HepG2.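 Further: luminescence read-out in 384-well plates, with cells plated directly onto drug dilutions of known concentration.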 Particulars: Homo sapiens, 60-agent screen, 72 hours, a value of 10,000 indicates that the drug did not inhibit viability, read-out: absolute IC50, HepG2.
Another experiment deals with Huh-6. As to the kind of experiment: 60-agent chemical screen, cell viability (Cell-Titer Glo), Huh-6. The conditions noted are these: Homo sapiens, 60-agent screen, 72 hours, a value of 10,000 indicates that the drug did not inhibit viability, read-out: absolute IC50, Huh-6.

Some results are limits rather than exact numbers.

Regarding `CCc1cnn2c(NCc3ccc[n+]([O-])c3)cc(N3CCCC[C@H]3CCO)nc12` [dinaciclib], the IC50 in the experiment with HB-214 was greater than 10000 nM; in the experiment with HepG2 it was 8 nM; with Huh-6, 10 nM.

What is called IC50 is the point on the concentration scale where inhibition reaches its midpoint.

The record behind these values is PMC6849653, “Volasertib preclinical activity in high-risk hepatoblastoma” (Oncotarget, 2019).
